# Measurements taken from paper PMC7373899.
# Amino acid sequences for entries named in this document (tags omitted). A change or cut given only in a name is not applied to a line headed by its entry.
# UniProt P42224: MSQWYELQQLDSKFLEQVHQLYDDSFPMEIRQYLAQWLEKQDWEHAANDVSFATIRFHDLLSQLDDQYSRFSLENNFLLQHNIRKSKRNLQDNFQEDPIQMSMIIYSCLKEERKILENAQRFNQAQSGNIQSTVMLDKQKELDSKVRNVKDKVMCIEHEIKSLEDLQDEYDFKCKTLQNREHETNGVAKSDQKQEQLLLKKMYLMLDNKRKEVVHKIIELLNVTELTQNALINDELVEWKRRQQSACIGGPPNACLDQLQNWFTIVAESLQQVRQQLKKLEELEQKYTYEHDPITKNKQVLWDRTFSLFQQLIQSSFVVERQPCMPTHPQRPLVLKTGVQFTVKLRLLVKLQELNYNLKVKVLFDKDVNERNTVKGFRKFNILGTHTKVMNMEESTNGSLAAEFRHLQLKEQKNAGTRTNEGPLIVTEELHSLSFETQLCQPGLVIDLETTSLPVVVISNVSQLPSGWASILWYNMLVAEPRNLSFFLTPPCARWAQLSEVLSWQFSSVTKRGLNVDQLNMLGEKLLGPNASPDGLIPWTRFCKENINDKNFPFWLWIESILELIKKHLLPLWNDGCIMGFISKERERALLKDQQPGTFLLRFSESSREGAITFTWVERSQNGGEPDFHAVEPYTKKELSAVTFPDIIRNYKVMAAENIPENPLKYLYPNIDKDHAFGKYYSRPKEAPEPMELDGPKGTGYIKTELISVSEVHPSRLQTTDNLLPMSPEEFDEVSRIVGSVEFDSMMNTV
# The exact form of at least one protein or probe is not confirmed. At least one result comes from cells or an extract, where the contact may be indirect.
# Molecular target: pSTAT1 homodimer (UniProt P42224)
# Assay: EMSA supershift
# Details: nuclear lysate, 1 h after 1,400 pM IFNa, no prestimulation, complex much reduced after 280 pM prestimulation; 20 mM HEPES pH 7.9, 50 mM KCl, 1 mM MgCl2, 1 mM DTT, 0.1 mM EDTA, 5% glycerol, 200 ug/ml BSA, 1 ug poly[dI-dC], 5 ug nuclear lysate in 19 ul; 20 min on ice; protein in an extract; label: 32P 5' end (T4 PNK)
sequence,measurement,value
CATTTCGGGGAAATCAGGC (double strand) [GAS-binding region of human IRF1 promoter],binding result,binds
